The test concerns the target T1, HIS-FLAG-tagged ATF3 (activating transcription factor 3) (UniProt P18847).
T1 sequence: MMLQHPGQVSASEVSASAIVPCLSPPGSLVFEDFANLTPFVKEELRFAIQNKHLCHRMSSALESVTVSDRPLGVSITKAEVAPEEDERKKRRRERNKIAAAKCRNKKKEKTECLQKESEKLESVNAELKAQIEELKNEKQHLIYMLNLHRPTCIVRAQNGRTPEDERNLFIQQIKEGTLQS
As to the kind of experiment: pull-down; Ni2+-NTA agarose precipitates HIS-FLAG-tagged ATF3 from lysates of transfected H1299 or Y1 cells 48 h after transfection; Sabatini lysis buffer (40 mM HEPES, 120 mM NaCl, 1% Triton X-100, 1 mM EDTA); anti-ATF3 and anti-NR5A1 immunoblotting (the legend says immunoprecipitated by anti-HIS antibody).

The chains behind the UniProt entries cited, without tags or fusion partners.
UniProt Q13285: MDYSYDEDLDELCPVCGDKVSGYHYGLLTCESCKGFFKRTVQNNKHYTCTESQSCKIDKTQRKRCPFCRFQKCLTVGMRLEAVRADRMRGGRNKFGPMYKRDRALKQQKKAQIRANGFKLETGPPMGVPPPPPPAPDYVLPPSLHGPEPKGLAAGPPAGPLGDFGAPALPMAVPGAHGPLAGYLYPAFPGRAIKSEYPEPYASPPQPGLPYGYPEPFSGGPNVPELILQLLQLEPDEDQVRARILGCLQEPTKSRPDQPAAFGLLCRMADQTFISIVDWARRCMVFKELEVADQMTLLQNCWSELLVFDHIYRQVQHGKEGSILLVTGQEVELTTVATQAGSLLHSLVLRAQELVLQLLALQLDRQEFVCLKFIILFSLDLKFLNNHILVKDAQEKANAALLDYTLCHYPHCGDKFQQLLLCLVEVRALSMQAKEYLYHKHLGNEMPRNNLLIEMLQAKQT
UniProt P33242: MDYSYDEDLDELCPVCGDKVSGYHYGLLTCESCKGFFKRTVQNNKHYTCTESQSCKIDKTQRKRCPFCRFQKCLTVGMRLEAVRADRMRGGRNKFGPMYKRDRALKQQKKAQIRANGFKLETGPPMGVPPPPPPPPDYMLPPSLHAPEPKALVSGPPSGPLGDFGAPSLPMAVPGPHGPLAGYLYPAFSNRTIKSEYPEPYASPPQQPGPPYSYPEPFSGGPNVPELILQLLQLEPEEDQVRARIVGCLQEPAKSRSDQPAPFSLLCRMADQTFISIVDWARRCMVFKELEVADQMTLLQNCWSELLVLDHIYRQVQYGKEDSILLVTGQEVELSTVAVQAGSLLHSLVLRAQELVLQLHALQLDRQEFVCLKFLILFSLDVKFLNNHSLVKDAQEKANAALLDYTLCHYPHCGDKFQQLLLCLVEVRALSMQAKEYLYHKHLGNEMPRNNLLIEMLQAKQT

For two substances, binding results are on record in publication PMC7073147.

These are yes or no findings as the source states them, for the method shown. Binding seen in cells or lysates may run through a third protein. Some entries that bind do so weakly or less than the wild type. Sequences can lack the tags named with a protein.

For the substance “HA-tagged NR5A1 (steroidogenic factor 1), wild-type (from UniProt Q13285 1-461)”, the binding entry is given as “binds”.

For “endogenous NR5A1 of Y1 cells (from UniProt P33242 1-462)”, the binding entry was “binds”.
